Measurements from doi:10.1101/2025.03.27.645694.
Results are given in words; binding and its absence hold for the method and conditions named. In cells and extracts the contact can be indirect. Some entries that bind do so weakly or less than the wild type. Sequences can lack the tags named with a protein.

T1: Actin-related protein M1 (ARPM1), HA-tagged (mouse) (UniProt Q8BXF8)
T1 sequence: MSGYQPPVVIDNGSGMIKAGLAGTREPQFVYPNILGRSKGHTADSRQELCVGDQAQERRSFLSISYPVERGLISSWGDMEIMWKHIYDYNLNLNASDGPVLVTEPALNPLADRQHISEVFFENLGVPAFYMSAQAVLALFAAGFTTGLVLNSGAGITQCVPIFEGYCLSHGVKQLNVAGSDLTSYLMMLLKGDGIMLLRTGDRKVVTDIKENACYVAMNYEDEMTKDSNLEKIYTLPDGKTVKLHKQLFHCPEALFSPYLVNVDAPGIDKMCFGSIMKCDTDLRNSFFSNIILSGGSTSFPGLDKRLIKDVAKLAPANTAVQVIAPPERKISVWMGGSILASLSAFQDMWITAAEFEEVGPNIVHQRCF


Biological target: T1, Actin-related protein M1 (ARPM1), HA-tagged (mouse)
Test: co-IP

binding	Binder
no binding	SPEM2, Myc-tagged (protein, UniProt Q8C5U4 1-503) MENQLWQNTLRCCEQYQESPQDAENILFLLLGLIILVNISINVATAMWQGLQNAIDKMIFWMNQKTEVVQVTECPPKEPQPANVQDVHIHCILDPVQVKMAQPTQCSSSSSHYFCKRSNDRRSRRRYGYQQGNLQIHQSSQQQGCLSHQQRLRNRPLSRGYPPFRKQPQGHKMSQMRPMPFFDMEDRDSLPEGHSCPHAKQPRRGWGSLCKPVRLASNVGLWGRQGGILASLPLPSLYLSPELRRLPKRVEAKSELRLQGFGPHYSQSRIWGTVEAEQWASSPPPPRRLLPNPSWVTVGYSSFPSGGHIPYDARDQWRRGTEGCEPPPAFVPRNPREVQGYRDHNSQAHRQNFSSHTHSQPNHSPPQSMGHVGYSSRESHEVRRRAPDWIEVFPSRHPLTTSTSLTALGEASYQRAPPASSGLMIPHSSQRLAEVQISDPTPPPTTFVPLSRNPGGNATYQVYDSLELKRQVQENRGRASSLPPPSTSASRPSLHRSRTGKLN
binds	Zona pellucida binding protein (ZPBP), Myc-tagged (protein, UniProt Q62522 45-350) HLARLPRSIHLTQDSLKIVGSTHFPVSVYVMLHQKSPHVLCVTQRLRNTELVDPSFQWHGPKGKLVSENTTAQVTSTGSLIFQSFEETMSGVYTCFLEYKPTVEESIKNLQLKYIVYAYREPRFYYQFTARYHAAPCNSIYNISFEKKLLQILSKLVLDLSCEISLIKSECHRVKMQRAGLQNELFFTFSVASIDTEKGSKPCTDHSCEASKRLSKAKNLIERFFIQQVEVLGKRAEPLPEIYYIEGTLQMVWVNRCFPGYGINVLKHPKCPECCVVCSPGSFNPRDGTHCLQCNNSLVYGAKTCM
binds	Profilin 3 (PFN3), Myc-tagged (protein, UniProt Q9DAD6 1-137) MSDWKGYISAVLRDQRIDDVAIVGHSDNRCVWASRPGGLLAAISPQEVGVLTGPDRHTFLQTGLSVAGRRCCVIRDYLLAEGDGVLDARTKGLDGRAICVGHTPRALLVLMGRRGVHGGILNKTVHDLIGGLREQCS
binds	ACTL7A, Myc-tagged (protein, UniProt Q9QY84 1-440) MSLDGVWAPQTANIGDGPAKKASDQASMQTQVLQTASLKDGPAKRAVWVRRDNAETEDPVKSTMSKDRPRLEVTKAVVVDLGTGFCKCGFAGLPKPTHKISTTVGKPYMETAKTGDNRKETFVGHELFNPDIHLKLVNPLRHGIIVDWDTVQDIWEYLFRQEMKIAPEEHAVLVSDPPLSPHTNREKYAEMLFETFNTPAMHIAYQSRLSMYSYGRTSGLVVEVGHGVSYVVPIYEGYPLPSITGRLDYAGSDLTTYLMNLMNNSGKHFSEDHLGIVEDIKTRCCFVALDPIEEKKIPAPEHEIHYTLPDGKEIRLGQERFLCSEMFFKPSLIKSMQLGLHTQTVSCLNKCDIALKRDLMGNILLCGGSTMLRGFPNRLQKELSSMCPNDTPQVNVLPERDTAVWTGGSILASLQGFQPLWVHRLEYEEHGPFFLYRRCF
binds	ACTRT1, Myc-tagged (protein, UniProt Q9D9J3 1-376) MLDPARLDNPAVIFDNGSGLCKVGISGEIEPRHVINSVVGHPKFNIPSARSNRKRYFVGEEAQCMYDGLYLHYPIERGLVTRWDDMEKLWKDLFEWELGVKPNEQPVFMTEPSLNPQETREKTTEIMFEKFNVPALYLCNHAVGALCASACITGLVLDSGDGVTCTVPVYEGYSLPHAITKLYVAGRDITEHLTRLLLAKGYTFPCILNKAVVDDIKEKLCTVSLGYKDTEKNCQQFLRKYTLPDGNTIQMSDHLCQVPEVLFTPDHLGIHDLGISKMVCNSIMNCDTDIQENLFAEIVLSGGTTMFPGLQDRLLKELEDLAFEGTPIKITASSDRCYSAWIGGSVMTSMTTFKQMWVTAEDFKEYGAFVVQRKCF
